PubChem BioAssay AID1259254, NCATS, 2017

- Screen: 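Genome-wide screen for genes that prevent DNA re-replication in cancer cells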 (primary screen)
- System: human HCT116 colorectal cancer cells
- Reagent: single siRNA against human genes
- Timing: 3 days
- Measured: 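Nuclei stained with Hoechst and imaged; cell-cycle phase assigned by DNA content; G2 share scaled per plate, non-targeting siRNA 0%, GMNN siRNA 100%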
- Reading the numbers: G2 robust z-score and G2 cells, % of GMNN control: higher = more G2 cells, more excess DNA replication
- Active means: 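Active siRNAs have a G2 robust z of 5 or more median absolute deviations over the median, which in these data means about 38% or higher of GMNN control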
The deposit covers about 59,000 reagents; below is a part drawn at random. Of all reagents, about 1,550 (2.6%) are marked active. 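G2 share is only a proxy for re-replication; each gene was hit by three separate siRNAs, and active genes were retested.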 Unmarked entries are inactive. The numbers tell different reagents against one gene apart. Not all columns of the deposit are shown. Not given: the amount of reagent.

gene symbol	reagent	G2 robust z-score	G2 cells, % of GMNN control
CYP3A5 (cytochrome P450 family 3 subfamily A member 5)	1	-0.544	-0.862
CYP3A5 (cytochrome P450 family 3 subfamily A member 5)	2	-1.03	-4.26
CYP3A5 (cytochrome P450 family 3 subfamily A member 5)	3	-1.11	-4.83
TMEM106C (transmembrane protein 106C)	1	0.355	5.47
TMEM106C (transmembrane protein 106C)	2	1.27	11.9
TMEM106C (transmembrane protein 106C)	3	2.44	20.1
ATL2 (atlastin GTPase 2)	1	-0.182	1.69
ATL2 (atlastin GTPase 2)	2	-0.753	-2.33
ATL2 (atlastin GTPase 2)	3	-1.07	-4.59
CCDC81 (coiled-coil domain containing 81)	1	1.99	16.9
CCDC81 (coiled-coil domain containing 81)	2	0.24	4.66
CCDC81 (coiled-coil domain containing 81)	3	-0.296	0.882
CYB561D2 (cytochrome b561 family member D2)	1	-1.06	-4.48
CYB561D2 (cytochrome b561 family member D2)	2	2.43	20.1
CYB561D2 (cytochrome b561 family member D2)	3	3.35	26.5
ISOC2 (isochorismatase domain containing 2)	1	-0.411	0.0762
ISOC2 (isochorismatase domain containing 2)	2	2.48	20.4
ISOC2 (isochorismatase domain containing 2)	3	1.34	12.4
KIF20A (kinesin family member 20A)	1	-0.0294	2.76
KIF20A (kinesin family member 20A)	2	-0.207	1.51
KIF20A (kinesin family member 20A)	3	0.461	6.21
MAP9 (microtubule associated protein 9)	1	0.00694	3.02
MAP9 (microtubule associated protein 9)	2	1.5	13.5
MAP9 (microtubule associated protein 9)	3	0.845	8.92
INTS2 (integrator complex subunit 2)	1	0.271	4.87
INTS2 (integrator complex subunit 2)	2	-1.26	-5.88
INTS2 (integrator complex subunit 2)	3	0.449	6.13
GSG1 (germ cell associated 1)	1	0.467	6.26
GSG1 (germ cell associated 1)	2	0.279	4.93
GSG1 (germ cell associated 1)	3	-0.751	-2.31
ECHS1 (enoyl-CoA hydratase, short chain 1)	1	0.573	7
ECHS1 (enoyl-CoA hydratase, short chain 1)	2	0.00716	3.02
ECHS1 (enoyl-CoA hydratase, short chain 1)	3	-0.365	0.402
RCN3 (reticulocalbin 3)	1	2.59	21.2
RCN3 (reticulocalbin 3)	2	2.33	19.3
RCN3 (reticulocalbin 3)	3	-0.701	-1.97
SPRN (shadow of prion protein)	1	0.66	7.61
SPRN (shadow of prion protein)	2	0.458	6.19
SPRN (shadow of prion protein)	3	1.29	12
PLXNB1 (plexin B1)	1	2.77	22.4
PLXNB1 (plexin B1)	2	3.92	30.5
PLXNB1 (plexin B1)	3	0.484	6.37
IL17F (interleukin 17F)	1	0.222	4.53
IL17F (interleukin 17F)	2	-0.0602	2.54
IL17F (interleukin 17F)	3	0.442	6.08
RRM1 (ribonucleotide reductase catalytic subunit M1)	1	0.972	9.81
RRM1 (ribonucleotide reductase catalytic subunit M1)	2	1.92	16.5
RRM1 (ribonucleotide reductase catalytic subunit M1)	3	1.91	16.4
GET3 (guided entry of tail-anchored proteins factor 3, ATPase)	1	0.522	6.64
GET3 (guided entry of tail-anchored proteins factor 3, ATPase)	2	-0.15	1.91
GET3 (guided entry of tail-anchored proteins factor 3, ATPase)	3	-0.193	1.61
WDR93 (WD repeat domain 93)	1	6.77 (active)	50.6
WDR93 (WD repeat domain 93)	2	-0.0812	2.4
WDR93 (WD repeat domain 93)	3	3.11	24.8
WDR62 (WD repeat domain 62)	1	-0.6	-1.25
WDR62 (WD repeat domain 62)	2	-0.114	2.16
WDR62 (WD repeat domain 62)	3	-0.524	-0.722
NXNL1 (nucleoredoxin like 1)	1	0.902	9.32
NXNL1 (nucleoredoxin like 1)	2	0.474	6.3
NXNL1 (nucleoredoxin like 1)	3	3.49	27.5
TRIM44 (TRIM family member 44)	1	-0.598	-1.24
TRIM44 (TRIM family member 44)	2	-0.232	1.33
TRIM44 (TRIM family member 44)	3	5.72 (active)	43.2
DOCK10 (dedicator of cytokinesis 10)	1	-0.851	-3.02
DOCK10 (dedicator of cytokinesis 10)	2	3.19	25.4
DOCK10 (dedicator of cytokinesis 10)	3	1.52	13.7
SPG21 (SPG21 abhydrolase domain containing, maspardin)	1	-1.21	-5.56
SPG21 (SPG21 abhydrolase domain containing, maspardin)	2	1.03	10.2
SPG21 (SPG21 abhydrolase domain containing, maspardin)	3	-0.0828	2.39
